Here are results for 16 molecules from PubChem BioAssay AID330 (DTP/NCI, 2004).

The assay concerns P388 leukemia ip, CD2F1 mice, survival T/C. Nature of the assay: NCI In Vivo Anticancer Drug Screen. Data for tumor model P388 Leukemia (intraperitoneal) in CD2F1 (CDF1) mice. The settings on record: T/C endpoint: median survival time, higher T/C = longer survival.
Where [1] appears, read: dose: 100.0 mg/kg/injection, schedule: Q01DX001 (ip), vehicle: Klucel (hydroxypropylcellulose) (HPC).
Where [2] appears, read: dose: 200.0 mg/kg/injection, schedule: Q01DX001 (ip), vehicle: Klucel (hydroxypropylcellulose) (HPC).
The mark [3] stands for this setting: dose: 400.0 mg/kg/injection, schedule: Q01DX001 (ip), vehicle: Klucel (hydroxypropylcellulose) (HPC).
[4] abbreviates: dose: 6.25 mg/kg/injection, schedule: Q01DX009 (ip), vehicle: saline with Tween-80.
The mark [5] stands for this setting: dose: 12.5 mg/kg/injection, schedule: Q01DX009 (ip), vehicle: saline with Tween-80.
[6] abbreviates: dose: 25.0 mg/kg/injection, schedule: Q01DX009 (ip), vehicle: saline with Tween-80.
The mark [7] stands for this setting: dose: 50.0 mg/kg/injection, schedule: Q01DX009 (ip), vehicle: saline with Tween-80.
Setting [8] is: dose: 100.0 mg/kg/injection, schedule: Q01DX009 (ip), vehicle: saline with Tween-80.
[9] abbreviates: dose: 200.0 mg/kg/injection, schedule: Q01DX009 (ip), vehicle: saline with Tween-80.

The list shows only some results of the screen, not a fair sample: it covers a few groups of compounds. Other doses and runs of a compound may be missing. T/C is the treated group as % of the vehicle group. Some entries give survivors of the animals treated and no T/C: the source holds a T/C of zero for them, seemingly a mark for toxic or unscored doses. Some doses without a T/C left all or most animals alive at the check, yet need not have been tolerated: the source hardly ever lists a survival T/C far under the control, and the zero likely stands for such cases as well. Counts of survivors are from the toxicity check (mostly the fifth day) where no day follows; animals may have died later. Schedule codes are those of the source, taken here to give the interval after Q, in days (D) or hours (H), and the number of doses after X. Some complexes appear as separate parts, the way the source draws them; their charges need not add up. For survival time, this PubChem deposit counts one and a half times the control or more as active, and values a quarter to a half above the control carry no call in these data; other NCI protocols may use other cut-offs. Some T/C values carry the count of animals alive at the toxicity check (mostly the fifth day); where neither a count nor a note follows, no animal had died by that day. Some entries were tested several times; the results are listed from low to high. Some entries show no survivor count and are marked so; the dose need not have been tolerated. Marks such as (2×) say how often a value occurs here.

Regarding `CC(C)([N+](=O)[O-])C(C)(C)[N+](=O)[O-]`, where the note is “dose: 10.0 mg/kg/injection, schedule: Q01DX009 (ip), vehicle: saline with Tween-80”, the T/C is 100 % of control. The survivor count is given as 4 of 6 (dose: 20.0 mg/kg/injection, schedule: Q01DX009 (ip), vehicle: saline with Tween-80) and 0 of 6 (dose: 40.0 mg/kg/injection, schedule: Q01DX009 (ip), vehicle: saline with Tween-80).

`COc1ccc(N2CC=C(c3ccccc3)OP2(=O)Cl)cc1` (stereo unspecified): the T/C (dose: 25.0 mg/kg/injection, schedule: Q01DX005 (ip), vehicle: Klucel (hydroxypropylcellulose) (HPC), evaluated on day 20) is 109 % of control; the T/C (dose: 25.0 mg/kg/injection, schedule: Q01DX005 (ip), vehicle: Klucel (hydroxypropylcellulose) (HPC), evaluated on day 30) was 105 % of control; the T/C (dose: 50.0 mg/kg/injection, schedule: Q01DX005 (ip), vehicle: Klucel (hydroxypropylcellulose) (HPC), evaluated on day 20) was 110 % of control; the T/C (dose: 50.0 mg/kg/injection, schedule: Q01DX005 (ip), vehicle: Klucel (hydroxypropylcellulose) (HPC), evaluated on day 30) is 106 and 108 % of control; the T/C (dose: 100.0 mg/kg/injection, schedule: Q01DX005 (ip), vehicle: Klucel (hydroxypropylcellulose) (HPC), evaluated on day 20) was 109 % of control; the T/C (dose: 100.0 mg/kg/injection, schedule: Q01DX005 (ip), vehicle: Klucel (hydroxypropylcellulose) (HPC), evaluated on day 30) was 105 and 116 % of control [5 of 6 alive]. Moreover, the T/C runs as follows: (dose: 200.0 mg/kg/injection, schedule: Q01DX005 (ip), vehicle: Klucel (hydroxypropylcellulose) (HPC), evaluated on day 20) 122 % of control; (dose: 200.0 mg/kg/injection, schedule: Q01DX005 (ip), vehicle: Klucel (hydroxypropylcellulose) (HPC), evaluated on day 30) 116 and 130 % of control.

`C[Si](C)(C)OC(=O)N(CCCl)CCCl`: the T/C runs as follows: (dose: 25.0 mg/kg/injection, schedule: Q01DX001 (ip), vehicle: Klucel (hydroxypropylcellulose) (HPC)) 116 % of control; (dose: 50.0 mg/kg/injection, schedule: Q01DX001 (ip), vehicle: Klucel (hydroxypropylcellulose) (HPC)) 127 % of control; under setting [1], 137 and 166 % of control. The survivor count by setting is: under setting [2], 2 of 6; under setting [3], 1 of 6.

Turning to `ClCCN(CCCl)c1ccc(CN2CCCCC2)cc1`, the T/C reads like this: under setting [4], 120 % of control; under setting [5], 124 % of control; under setting [6], 133 % of control; under setting [7], 145 and 161 % of control. Also, the survivor count runs as follows: under setting [8], 0 of 6; under setting [9], 0 of 6.

With `CN[N+](=O)[O-]`, the T/C was 93 % of control [survivor count not shown] (dose: 6.25 mg/kg/injection, schedule: Q04DX002 (ip), vehicle: saline); 100 % of control [survivor count not shown] (dose: 12.5 mg/kg/injection, schedule: Q04DX002 (ip), vehicle: saline); 106 % of control [survivor count not shown] (dose: 25.0 mg/kg/injection, schedule: Q04DX002 (ip), vehicle: saline).

On to `[N-]=[N+]=NCc1cn[nH]n1`, for which the T/C was 100 % of control (dose: 60.0 mg/kg/injection, schedule: Q01DX005 (ip), vehicle: saline); 100 % of control (dose: 120.0 mg/kg/injection, schedule: Q01DX005 (ip), vehicle: saline); 103 % of control (dose: 240.0 mg/kg/injection, schedule: Q01DX005 (ip), vehicle: saline).

`O=C(O)/C=C\c1cccc(N(CCCl)CCCl)c1`: the T/C runs as follows: under setting [4], 108 % of control; under setting [5], 113 % of control; under setting [6], 160 % of control; (dose: 66.0 mg/kg/injection, schedule: Q04DX003 (ip), vehicle: saline with Tween-80) 113 % of control [5 of 6 alive]; (dose: 100.0 mg/kg/injection, schedule: Q04DX003 (ip), vehicle: saline with Tween-80) 154 and 159 % of control; (dose: 150.0 mg/kg/injection, schedule: Q04DX003 (ip), vehicle: saline with Tween-80) 118 % of control [4 of 6 alive]. In addition, where the note is “dose: 200.0 mg/kg/injection, schedule: Q04DX003 (ip), vehicle: saline with Tween-80”, the T/C was 186 % of control. Also, the survivor count (dose: 400.0 mg/kg/injection, schedule: Q04DX003 (ip), vehicle: saline with Tween-80) is reported as 3 of 6.

Turning to `CC1CCCN2C(=NC3C2C(=O)N(C)C(=O)N3C)N1` (stereo unspecified), the T/C is 98 % of control (dose: 50.0 mg/kg/injection, schedule: Q01DX001 (ip), vehicle: saline with Tween-80) and 97 % of control (dose: 100.0 mg/kg/injection, schedule: Q01DX001 (ip), vehicle: saline with Tween-80). For the same molecule, the survivor count (dose: 200.0 mg/kg/injection, schedule: Q01DX001 (ip), vehicle: saline with Tween-80) is on record as 6 of 6.

With `C[Si](C)(C)CCOC(=O)N(CCCl)CCCl`, the T/C by setting is: (dose: 100.0 mg/kg/injection, schedule: Q04DX002 (ip), vehicle: saline with Tween-80) 101 and 102 % of control; (dose: 200.0 mg/kg/injection, schedule: Q04DX002 (ip), vehicle: saline with Tween-80) 110 and 114 % of control; (dose: 400.0 mg/kg/injection, schedule: Q04DX002 (ip), vehicle: saline with Tween-80) 124 and 132 % of control; (dose: 600.0 mg/kg/injection, schedule: Q04DX002 (ip), vehicle: saline with Tween-80) 133 % of control [5 of 6 alive].

On to `C1CN1.Cc1c[nH]c(=O)[nH]c1=O.NC(CC(=O)O)C(=O)O`, for which the T/C was 99 % of control [5 of 6 alive] (dose: 100.0 mg/kg/injection, schedule: Q01DX001 (ip), vehicle: saline); 101 % of control (dose: 200.0 mg/kg/injection, schedule: Q01DX001 (ip), vehicle: saline); 100 % of control (dose: 400.0 mg/kg/injection, schedule: Q01DX001 (ip), vehicle: saline).

`CN([PH+](F)F)[PH+](F)F.CN([PH+](F)F)[PH+](F)F.CN([PH+](F)F)[PH+](F)F.[Cr]`: the T/C by setting is: under setting [1], 101 % of control; under setting [2], 101 % of control; under setting [3], 103 % of control.

For `CC(C)OP(C)(=O)O.[Tm]`, the T/C under setting [5] was 97 % of control [survivor count not shown], the T/C under setting [6] is 99 % of control [survivor count not shown], the T/C under setting [7] is 90 % of control [survivor count not shown] and the T/C under setting [9] is 93 % of control [survivor count not shown].

With `C1CCC(CC[N-]CC[N-]CCC2CCCC[N-]2)[N-]C1.F[P-](F)(F)(F)(F)F.[Cu+2]` (stereo unspecified), the T/C under setting [4] was 100 % of control; the T/C under setting [5] was 104 % of control (2×); the T/C under setting [6] was 100 and 103 % of control [5 of 6 alive]. The survivor count runs as follows: under setting [7], 1 of 6; under setting [8], 0 of 6; under setting [9], 0 of 6.

Regarding `CC(C)OP(C)(=O)O.[Eu]`, the T/C is 98 % of control [survivor count not shown] under setting [6]; 89 [survivor count not shown] and 91 % of control [survivor count not shown] under setting [7]; 91 % of control [survivor count not shown] under setting [8]; 90 % of control [survivor count not shown] under setting [9].

Consider `O=[N+]([O-])c1cc([N+](=O)[O-])c(-c2ncnc(-c3c([N+](=O)[O-])cc([N+](=O)[O-])cc3[N+](=O)[O-])c2[N+](=O)[O-])c([N+](=O)[O-])c1`, for which the T/C was 100 % of control under setting [7], 98 % of control under setting [8] and 100 % of control under setting [9].

In the case of `CC(Cl)CN(CC(C)Cl)C(=O)OCC(N)C(=O)O` (stereo unspecified), the T/C (dose: 12.5 mg/kg/injection, schedule: Q01DX009 (ip), vehicle: saline) is 100 % of control; the T/C (dose: 25.0 mg/kg/injection, schedule: Q01DX009 (ip), vehicle: saline) was 95 % of control; the T/C (dose: 50.0 mg/kg/injection, schedule: Q01DX009 (ip), vehicle: saline) is 104 % of control; the T/C (dose: 100.0 mg/kg/injection, schedule: Q01DX009 (ip), vehicle: saline) was 100 % of control; the T/C (dose: 200.0 mg/kg/injection, schedule: Q01DX009 (ip), vehicle: saline) was 95 % of control.
